Test results published in the supplement of paper PMC8728848.
Some of the results follow.

Legend:
Assay in all cases: glycan array binding signal (z-score within array); higher = stronger binding
Details in all cases: glycan notation: IUPAC condensed, linker removed
[1] = target: Gal(b1-4)GlcNAc(b1-3)Gal(b1-4)GlcNAc(b1-2)[Gal(b1-4)GlcNAc(b1-3)Gal(b1-4)GlcNAc(b1-6)]Man(a1-6)[Gal(b1-4)GlcNAc(b1-3)Gal(b1-4)GlcNAc(b1-2)Man(a1-3)]Man(b1-4)GlcNAc(b1-4)GlcNAc
How it was run: (§1)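 The Consortium for Functional Glycomics database supplied 3228 glycan arrays, of which those lacking an available protein sequence were dropped. The binding signal, a within-array Z-score, was averaged across arrays of the same protein sequence and across linkers. Negative scores can be read as non-binding.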

[2] = target: Gal(b1-4)GlcNAc(b1-3)Gal(b1-4)GlcNAc(b1-2)[Gal(b1-4)GlcNAc(b1-3)Gal(b1-4)GlcNAc(b1-6)]Man(a1-6)[Gal(b1-4)GlcNAc(b1-3)Gal(b1-4)GlcNAc(b1-2)Man(a1-3)]Man(b1-4)GlcNAc(b1-4)[Fuc(a1-6)]GlcNAc
How it was run: as §1

[3] = target: Gal(b1-4)GlcNAc(b1-3)Gal(b1-4)GlcNAc(b1-3)Gal(b1-4)GlcNAc
How it was run: as §1

[4] = target: Gal(b1-4)GlcNAc(b1-3)Gal(b1-4)GlcNAc(b1-3)Gal(b1-4)GlcNAc(b1-2)Man(a1-3)[Gal(b1-4)GlcNAc(b1-3)Gal(b1-4)GlcNAc(b1-3)Gal(b1-4)GlcNAc(b1-2)Man(a1-6)]Man(b1-4)GlcNAc(b1-4)GlcNAc
How it was run: as §1

[5] = target: Gal(b1-4)GlcNAc(b1-3)Gal(b1-4)GlcNAc(b1-3)Gal(b1-4)GlcNAc(b1-2)Man(a1-3)[Gal(b1-4)GlcNAc(b1-3)Gal(b1-4)GlcNAc(b1-3)Gal(b1-4)GlcNAc(b1-2)Man(a1-6)]Man(b1-4)GlcNAc(b1-4)[Fuc(a1-6)]GlcNAc
How it was run: as §1

[6] = target: Gal(b1-4)GlcNAc(b1-3)Gal(b1-4)GlcNAc(b1-3)Gal(b1-4)GlcNAc(b1-2)[Gal(b1-4)GlcNAc(b1-3)Gal(b1-4)GlcNAc(b1-3)Gal(b1-4)GlcNAc(b1-6)]Man(a1-6)[Gal(b1-4)GlcNAc(b1-3)Gal(b1-4)GlcNAc(b1-3)Gal(b1-4)GlcNAc(b1-2)Man(a1-3)]Man(b1-4)GlcNAc(b1-4)[Fuc(a1-6)]GlcNAc
How it was run: as §1

[7] = target: Gal(b1-4)GlcNAc(b1-3)Gal(b1-4)GlcNAc(b1-3)Gal(b1-4)GlcNAc(b1-3)Gal(b1-4)GlcNAc(b1-2)Man(a1-3)[Gal(b1-4)GlcNAc(b1-3)Gal(b1-4)GlcNAc(b1-3)Gal(b1-4)GlcNAc(b1-3)Gal(b1-4)GlcNAc(b1-2)Man(a1-6)]Man(b1-4)GlcNAc(b1-4)GlcNAc
How it was run: as §1

[8] = target: Gal(b1-4)GlcNAc(b1-3)Gal(b1-4)GlcNAc(b1-3)Gal(b1-4)GlcNAc(b1-3)Gal(b1-4)GlcNAc(b1-2)Man(a1-3)[Gal(b1-4)GlcNAc(b1-3)Gal(b1-4)GlcNAc(b1-3)Gal(b1-4)GlcNAc(b1-3)Gal(b1-4)GlcNAc(b1-2)Man(a1-6)]Man(b1-4)GlcNAc(b1-4)[Fuc(a1-6)]GlcNAc
How it was run: as §1

[9] = target: Gal(b1-4)GlcNAc(b1-3)Gal(b1-4)GlcNAc(b1-3)Gal(b1-4)GlcNAc(b1-3)Gal(b1-4)GlcNAc(b1-2)[Gal(b1-4)GlcNAc(b1-3)Gal(b1-4)GlcNAc(b1-3)Gal(b1-4)GlcNAc(b1-3)Gal(b1-4)GlcNAc(b1-6)]Man(a1-6)[Gal(b1-4)GlcNAc(b1-3)Gal(b1-4)GlcNAc(b1-3)Gal(b1-4)GlcNAc(b1-3)Gal(b1-4)GlcNAc(b1-2)Man(a1-3)]Man(b1-4)GlcNAc(b1-4)[Fuc(a1-6)]GlcNAc
How it was run: as §1

[10] = target: Gal(b1-4)GlcNAc(b1-3)Gal(b1-4)GlcNAc(b1-3)Gal(b1-4)GlcNAc(b1-3)Gal(b1-4)GlcNAc(b1-3)Gal(b1-4)GlcNAc(b1-2)Man(a1-3)[Gal(b1-4)GlcNAc(b1-3)Gal(b1-4)GlcNAc(b1-3)Gal(b1-4)GlcNAc(b1-3)Gal(b1-4)GlcNAc(b1-3)Gal(b1-4)GlcNAc(b1-2)Man(a1-6)]Man(b1-4)GlcNAc(b1-4)GlcNAc
How it was run: as §1

[11] = target: Gal(b1-4)GlcNAc(b1-3)Gal(b1-4)GlcNAc(b1-3)Gal(b1-4)GlcNAc(b1-3)Gal(b1-4)GlcNAc(b1-3)Gal(b1-4)GlcNAc(b1-2)Man(a1-3)[Gal(b1-4)GlcNAc(b1-3)Gal(b1-4)GlcNAc(b1-3)Gal(b1-4)GlcNAc(b1-3)Gal(b1-4)GlcNAc(b1-3)Gal(b1-4)GlcNAc(b1-2)Man(a1-6)]Man(b1-4)GlcNAc(b1-4)[Fuc(a1-6)]GlcNAc
How it was run: as §1

[12] = target: Gal(b1-4)GlcNAc(b1-3)Gal(b1-4)GlcNAc(b1-3)Gal(b1-4)GlcNAc(b1-3)Gal(b1-4)GlcNAc(b1-3)Gal(b1-4)GlcNAc(b1-2)[Gal(b1-4)GlcNAc(b1-3)Gal(b1-4)GlcNAc(b1-3)Gal(b1-4)GlcNAc(b1-3)Gal(b1-4)GlcNAc(b1-3)Gal(b1-4)GlcNAc(b1-6)]Man(a1-6)[Gal(b1-4)GlcNAc(b1-3)Gal(b1-4)GlcNAc(b1-3)Gal(b1-4)GlcNAc(b1-3)Gal(b1-4)GlcNAc(b1-3)Gal(b1-4)GlcNAc(b1-2)Man(a1-3)]Man(b1-4)GlcNAc(b1-4)[Fuc(a1-6)]GlcNAc
How it was run: as §1

[13] = target: Gal(b1-4)GlcNAc(b1-3)Gal(b1-4)GlcNAc(b1-3)Gal(b1-4)GlcNAc(b1-3)Gal(b1-4)GlcNAc(b1-3)Gal(b1-4)GlcNAc(b1-3)Gal(b1-4)GlcNAc(b1-2)Man(a1-3)[Gal(b1-4)GlcNAc(b1-3)Gal(b1-4)GlcNAc(b1-3)Gal(b1-4)GlcNAc(b1-3)Gal(b1-4)GlcNAc(b1-3)Gal(b1-4)GlcNAc(b1-3)Gal(b1-4)GlcNAc(b1-2)Man(a1-6)]Man(b1-4)GlcNAc(b1-4)GlcNAc
How it was run: as §1

[14] = target: Gal(b1-4)GlcNAc(b1-3)Gal(b1-4)GlcNAc(b1-3)GalNAc
How it was run: as §1

[15] = target: Gal(b1-4)GlcNAc(b1-3)Gal(b1-4)GlcNAc(b1-3)[Gal(b1-4)GlcNAc(b1-3)Gal(b1-4)GlcNAc(b1-6)]GalNAc
How it was run: as §1

[16] = target: Gal(b1-4)GlcNAc(b1-3)Gal(b1-4)GlcNAc(b1-6)[Gal(b1-3)]GalNAc
How it was run: as §1

[17] = target: Gal(b1-4)GlcNAc(b1-3)Gal(b1-4)[Fuc(a1-3)]GlcNAc(b1-3)Gal(b1-4)[Fuc(a1-3)]GlcNAc
How it was run: as §1

[18] = target: Gal(b1-4)GlcNAc(b1-3)GalNAc
How it was run: as §1

B1: GS7807F-bth-514-18-514 (Bacteroides thetaiotaomicron) (protein)
chain: AGSCTGNFEEYNTNQFQIHEADPSTLMKSMIETIVNIQQNDSQMMDQMVGQLGGYLTCANVWSGTNFGTFNQSDAWNAGPWNTNFEKIYGNFFQIQEATNESGHYYAFARMIRAITMLRVADCYGPMPYSQVKKGNFYVAYDTEEQVYKNIMEDFASAANVLYNYYKDTNGNAPLASNDPVFSGNYANWARLANSMRLRVAIRISTAYPEMAKENAEAAASHEAGLIEANNDNAMMDCGSQTNPYQLAAVSWGDLRVNANIVDYMNGYGDPRMSKYFNHSTFTGHTQEYVGMRSGEDGFAKSDVAGYSIPAITGTSKLLVFCAAETAFLRAEGKLKNWSVGNKSAKEYYEEGIKLSMEQYGTTMPDNYLTNTEKPTVSHNNDPRGHAYTISNTVAVAWNDNNEEENLQRIITQKWIANYPLGLEAWAEYRRTGYPELYPCIDNLSPSGVDSKRGMRRLRFPYTEVQNNHSNYQQGVSYLKNGGPDNEATDLSWGKTN
[1]
  glycan array binding signal (z-score): 2.49
[2]
  glycan array binding signal (z-score): 2.82
[3]
  glycan array binding signal (z-score): 0.584
[4]
  glycan array binding signal (z-score): 0.809
[5]
  glycan array binding signal (z-score): 0.542
[6]
  glycan array binding signal (z-score): 3.25
[7]
  glycan array binding signal (z-score): 0.65
[8]
  glycan array binding signal (z-score): 0.046
[9]
  glycan array binding signal (z-score): 2.03
[10]
  glycan array binding signal (z-score): 4.26
[11]
  glycan array binding signal (z-score): 2.27
[12]
  glycan array binding signal (z-score): 1.76
[13]
  glycan array binding signal (z-score): 3.26
[14]
  glycan array binding signal (z-score): 2.5
[15]
  glycan array binding signal (z-score): 3.96
[16]
  glycan array binding signal (z-score): 1.15
[17]
  glycan array binding signal (z-score): 0.091
[18]
  glycan array binding signal (z-score): -0.61
